This assay addresses T1, YfgM-ALFA (C-terminally ALFA-tagged YfgM) (E. coli) (UniProt P76576).
T1 sequence: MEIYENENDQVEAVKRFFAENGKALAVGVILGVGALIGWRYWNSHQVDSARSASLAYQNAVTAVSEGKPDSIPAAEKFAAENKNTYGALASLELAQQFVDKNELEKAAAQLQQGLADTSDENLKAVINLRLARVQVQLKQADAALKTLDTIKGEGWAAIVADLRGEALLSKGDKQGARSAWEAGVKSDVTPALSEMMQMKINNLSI
Kind of assay: co-IP; DDM-solubilized lysate of E. coli ΔyfgM expressing YfgM-ALFA, captured on ALFA Selector^PE, washed in PBS with 0.3% DDM, eluted with 200 µM ALFA peptide; Western blot with serum against the YfgM-PpiD complex.

No constants are given. Whether binding was seen depends on the method and setting. Binding seen in cells or lysates may run through a third protein. Some entries that bind do so weakly or less than the wild type. Tags and fused reporters may be left off the sequences shown.

B1: PpiD (protein, UniProt P0ADY1 1-623)
chain: MMDSLRTAANSLVLKIIFGIIIVSFILTGVSGYLIGGGNNYAAKVNDQEISRGQFENAFNSERNRMQQQLGDQYSELAANEGYMKTLRQQVLNRLIDEALLDQYARELKLGISDEQVKQAIFATPAFQVDGKFDNSRYNGILNQMGMTADQYAQALRNQLTTQQLINGVAGTDFMLKGETDELAALVAQQRVVREATIDVNALAAKQPVTEQEIASYYEQNKNNFMTPEQFRVSYIKLDAATMQQPVSDADIQSYYDQHQDQFTQPQRTRYSIIQTKTEDEAKAVLDELNKGGDFAALAKEKSADIISARNGGDMGWLEDATIPDELKNAGLKEKGQLSGVIKSSVGFLIVRLDDIQPAKVKSLDEVRDDIAAKVKHEKALDAYYALQQKVSDAASNDTESLAGAEQAAGVKATQTGWFSKDNLPEELNFKPVADAIFNGGLVGENGAPGINSDIITVDGDRAFVLRISEHKPEAVKPLADVQEQVKALVQHNKAEQQAKVDAEKLLVDLKAGKGAEAMQAAGLKFGEPKTLSRSGRDPISQAAFALPLPAKDKPSYGMATDMQGNVVLLALDEVKQGSMPEDQKKAMVQGITQNNAQIVFEALMSNLRKEAKIKIGDALEQQ
On to B1, for which the binding result is reported as “binds”.

(Values after publication PMC6764986.)
